Data as given in PubChem BioAssay AID504804 (Drosophila RNAi Screening Center, 2011).
The screen tested about 19,000 reagents; shown is an unselected part of those that have a named target and a result. Over the whole deposit, 47 (0.25%) got an active call. 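Signals are raw, not normalised; exact z-scores behind calls not deposited; actives needed confirmation, so some wells reaching 2 SD are inactive.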 Names joined by + are all predicted targets of the reagent.

Assay: 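dsRNAs that improve Kc cell survival under doxorubicin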 (primary screen)
Cells: Drosophila Kc cells
Reagent: long dsRNA against Drosophila genes, 0.5 µg dsRNA per well
Time to read-out: 96 h (48 h knock-down, then 48 h drug)
Treatment: doxorubicin 5 µg/ml for 48 h, added 48 h after dsRNA
Read-out: 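Viability measured as cellular ATP by luminescence after 48 h knock-down then 48 h doxorubicin at 5 µg/ml; unnormalised plate counts for each replicate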
Direction: raw ATP luminescence: higher = more viable cells, protection from doxorubicin
Rule for the call: 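z-score of 2 or more over plate mean in both duplicates, retained only when retests and separate dsRNAs confirm the protection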

gene | amplicon | raw ATP luminescence, replicate 1 | raw ATP luminescence, replicate 2 | Call
alpha-Est2 | DRSC12614 | 57197 | 59920 | inactive
beta-Man | DRSC12208 | 24767 | 29140 | inactive
beta-Man | DRSC12209 | 79280 | 63750 | inactive
Acox3 | DRSC03251 | 25580 | 25533 | inactive
CecA1 | DRSC16603 | 30010 | 31310 | inactive
CG10748 | DRSC09797 | 92020 | 95020 | inactive
tmod | DRSC13993 | 2.88e5 | 2.61e5 | inactive
tmod | DRSC14314 | 49060 | 40270 | inactive
tmod | DRSC15076 | 72180 | 46100 | inactive
TMEM216 + CG11760 | DRSC14375 | 71443 | 36823 | inactive
dgt4 | DRSC18659 | 41670 | 56980 | inactive
yem | DRSC14865 | 52780 | 45140 | inactive
yem | DRSC17097 | 55640 | 50580 | inactive
CG3604 | DRSC00618 | 32040 | 20250 | inactive
uif | DRSC00963 | 2.69e5 | 3.15e5 | inactive
uif | DRSC03427 | 33830 | 44077 | inactive
inaE | DRSC19376 | 2.02e5 | 2.34e5 | inactive
inaE | DRSC19379 | 2.63e5 | 3.51e5 | inactive
inaE | DRSC19726 | 2.79e5 | 3.20e5 | inactive
CG34174 | DRSC00101 | 2.32e5 | 2.64e5 | inactive
Balat | DRSC06852 | 73843 | 54377 | inactive
Coprox | DRSC01996 | 94940 | 67953 | inactive
Tmx3 | DRSC10471 | 34233 | 34300 | inactive
l(2)05714 | DRSC03118 | 1.00e5 | 62703 | inactive
Osi5 | DRSC12276 | 57560 | 56810 | inactive
DopEcR | DRSC08529 | 40517 | 33427 | inactive
CG3176 + CR18166 + CG32817 | DRSC17271 | 1.83e5 | 1.94e5 | inactive
CG3176 + CR18166 + CG32817 | DRSC17282 | 1.74e5 | 1.91e5 | inactive
CG42717 | DRSC09411 | 76180 | 72337 | inactive
Prosalpha2 | DRSC16798 | 61327 | 50453 | inactive
Atg16 | DRSC15300 | 69640 | 44960 | inactive
Atg16 | DRSC15375 | 78380 | 58700 | inactive
MED11 | DRSC10739 | 28103 | 12893 | inactive
Vps8 | DRSC09705 | 76850 | 74747 | inactive
Cog3 | DRSC00585 | 93550 | 64023 | inactive
CG4914 | DRSC10458 | 75637 | 53140 | inactive
sgg | DRSC17228 | 2.25e5 | 2.23e5 | inactive
sgg | DRSC17722 | 2.55e5 | 2.02e5 | inactive
sgg | DRSC18832 | 51410 | 71250 | inactive
Claspin | DRSC08308 | 2.55e5 | 2.54e5 | inactive
CG1513 | DRSC05194 | 74770 | 69623 | inactive
CG1513 | DRSC06553 | 1.93e5 | 1.97e5 | inactive
CG1513 | DRSC06554 | 40117 | 1.01e5 | inactive
Hsp67Bc | DRSC11193 | 78040 | 80053 | inactive
CG14218 | DRSC19575 | 3.30e5 | 3.38e5 | inactive
CG3581 | DRSC15499 | 59520 | 85700 | inactive
Sec61gamma | DRSC19570 | 3.03e5 | 3.00e5 | inactive
Aatf | DRSC02131 | 28210 | 38287 | inactive
CG31650 | DRSC03140 | 77153 | 77937 | inactive
CG14540 | DRSC14884 | 60880 | 77530 | inactive
CG17999 | DRSC04300 | 75467 | 63630 | inactive
Su(var)205 | DRSC03446 | 1.07e5 | 58580 | inactive
CG17328 | DRSC01927 | 79377 | 91793 | inactive
CG31688 + CG31687 | DRSC02116 | 48040 | 55443 | inactive

Not a retest: entries from further up.
gene | amplicon | raw ATP luminescence, replicate 1 | raw ATP luminescence, replicate 2 | Call
Hsp67Bc | DRSC11193 | 78040 | 80053 | inactive
CG14218 | DRSC19575 | 3.30e5 | 3.38e5 | inactive
CG3581 | DRSC15499 | 59520 | 85700 | inactive
Sec61gamma | DRSC19570 | 3.03e5 | 3.00e5 | inactive
Aatf | DRSC02131 | 28210 | 38287 | inactive
CG31650 | DRSC03140 | 77153 | 77937 | inactive

The list goes on.
gene | amplicon | raw ATP luminescence, replicate 1 | raw ATP luminescence, replicate 2 | Call
ppk25 | DRSC04973 | 38943 | 77607 | inactive
CG15576 | DRSC18064 | 34800 | 46020 | inactive
Trmt61 | DRSC14888 | 74310 | 62380 | inactive
CG6845 | DRSC08576 | 63727 | 84113 | inactive
arx | DRSC10386 | 15820 | 20353 | inactive
CG32536 + CG32537 | DRSC20074 | 4.12e5 | 2.99e5 | inactive
Obp28a | DRSC03394 | 42383 | 27973 | inactive
Eig71Ef | DRSC11153 | 42917 | 39010 | inactive
IA-2 | DRSC00304 | 1.07e5 | 90810 | inactive
IA-2 | DRSC00652 | 85263 | 76320 | inactive
Tctp | DRSC15649 | 54083 | 52490 | inactive
Hrb27C | DRSC03347 | 1.19e5 | 53010 | inactive
smp-30 | DRSC17059 | 1.16e5 | 78000 | inactive
CG1504 | DRSC20513 | 3.41e5 | 2.94e5 | inactive
CG12780 | DRSC06169 | 42497 | 77853 | inactive
Nepl9 | DRSC02255 | 77340 | 75740 | inactive
Tsp42Eo | DRSC06184 | 49577 | 75247 | inactive
Men | DRSC12924 | 2.43e5 | 2.74e5 | inactive
Men | DRSC16738 | 53130 | 49987 | inactive
CG14662 | DRSC12248 | 55933 | 51290 | inactive
Atg10 | DRSC06172 | 30457 | 93263 | inactive
CG31693 | DRSC03674 | 72360 | 61457 | inactive
Mmp2 | DRSC06698 | 41710 | 68687 | inactive
Vha16-5 | DRSC02986 | 33790 | 53557 | inactive
CCHa1 | DRSC14821 | 41880 | 37740 | inactive
CG11227 | DRSC20476 | 3.03e5 | 3.14e5 | inactive
CG13887 | DRSC08357 | 64933 | 53480 | inactive
CG32582 (retired record) | DRSC19114 | 2.38e5 | 2.62e5 | inactive
CG11741 | DRSC14367 | 57233 | 63010 | inactive
Tmem131 | DRSC07154 | 56123 | 50053 | inactive
